According to PMC9170038, “Crowdsourced RNA design discovers diverse, reversible, efficient, self-contained molecular switches”:

What follows are sequences tested against T1, MS2 coat protein, dlFG mutant del68-81insG (Escherichia phage MS2) (UniProt P03612) (assay: binding assay). Settings: 4 mM Mg2+, FMN 200 uM; RNA-MaP array; 100 mM Tris-HCl pH 7.5, 80 mM KCl, 4 mM MgCl2, 0.1 mg/mL BSA, 1 mM DTT, 0.01 mg/mL yeast tRNA, 0.01% Tween-20; protein 1.5 nM to 3 uM; 37 C (Table S3); purified recombinant protein.
T1 sequence (looked up, limits assumed): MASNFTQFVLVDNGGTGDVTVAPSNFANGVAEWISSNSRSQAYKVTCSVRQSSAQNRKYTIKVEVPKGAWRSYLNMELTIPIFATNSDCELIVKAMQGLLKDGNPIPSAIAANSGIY
With “AAAAGGCAUCGUGACAUGAGGAUCACCCAUGUGAUUUGCUCACAGGAUAUCAUGCUCACGGAGCCUGAGAAGGGUGAAAGCUAA [Eterna 6148979 (Same State NG 3)]” the pKd was under 5.52.
Work on “GACUCGAAUGUAGGAUAUGCUGAGGAAUACUCAGCAGAAGGACAUGAGGAUCACCCAUGUAAAUGAGUGAAUAAUAAACGAGUC [Eterna 6090265 (Exclusion NG 1)]” yielded a pKd of under 5.52.

Same assay, conditions: 4 mM Mg2+, no ligand; RNA-MaP array; 100 mM Tris-HCl pH 7.5, 80 mM KCl, 4 mM MgCl2, 0.1 mg/mL BSA, 1 mM DTT, 0.01 mg/mL yeast tRNA, 0.01% Tween-20; protein 1.5 nM to 3 uM; 37 C (Table S3); purified recombinant protein
In the case of “ACUUGCUUGCAGAAGGGUGACAUGAGGAUCACCCAUGUAGCGGGCCGGCGUAAAGUCAGCGCGCCACAGGAUAUGCAGGCCUCG [Eterna 6416943 (Inverted Same State NG 2)]”, the pKd was under 5.52.
“AGCCACUCGAGUGAUCCUCACGAGUGGCUACGAGGACCGGUACGGCCGCCACUCGAAUUAACAUGAGGAUCACCCAUGUAAUCAU [Eterna 7638954 (Same State - Tryptophan A)]” showed a pKd of under 5.52.
Sequence “GGUUAUAUAACAUGAGGAUCACCCAUGUGAGUGGUCCGAAUAUAGGAUAUCCACACGAGAAGUGUGGAGAAGGAUAAUUUAUUA [Eterna 6133184 (Exclusion NG 3)]” has a pKd of under 5.52.
“GUUGGUGUAGAAGGAUAUUGGUGAGGCGUCUUGUACAUGAGGAUCACCCAUGUCAUUCUGCACGCCGAGAAGGUCUGCAAUUGG [Eterna 6148683 (Same State NG 2)]” showed a pKd of under 5.52.
For “UAUGAAUAGCAAGGAUAUUGAUAACAUGAGGAUCACCCAUGUAAUUGAUCGAGUUAGAUCAGUUACAAGAAGGUGCAAUUGAUU [Eterna 5855586 (Same State NG 2)]”, the pKd was under 5.52.
For “UUCUUGGCAGGAUAUGCUUUUUUAGACAUGAGGAUCACCCAUGUGUUUAUUUUUUUUUUUGCAGAAGGGCCUUAAU [Eterna 14471 (Exclusion 5)]”, the pKd was under 5.52.

Same assay, conditions: 4 mM Mg2+, no ligand; RNA-MaP array; 100 mM Tris-HCl pH 7.5, 80 mM KCl, 4 mM MgCl2, 0.1 mg/mL BSA, 1 mM DTT, 0.01 mg/mL yeast tRNA, 0.01% Tween-20; protein 1.5 nM to 3 uM; 37 C (Table S3); purified recombinant protein; variant of MS2 control
“UGACAUUGCUCAGAUACCAGACAGGAGGAUCACUCCUGUGCCAACAAGUACAAAAUAAAUGUCCCUUGGCAGCUGAGCAAUGUCU [Eterna 7670674 (Exclusion - Theophylline B)]” was tested, and the pKd was under 5.52.

pKd: −log10 of the molar value. Protein sequences can lack the tags named with them.
